Data as given in patent US10232013B2, “Use of an antimicrobial peptide TP4 in treating a cancer” (Academia Sinica, priority 2016, dated 2019).
At least one peptide structure holds a part that was inferred or is arguable (an end, a ring closure or a residue). Where no end group is shown, it is not given here.

Legend:
TNBC (MB231) cells = assay: Mitochondrial Ca2+ measurement (Rhod-2 AM); assay type: cell-based, human; settings: 5-20 μg mL−1 TP4, 30 min, vs mock, P<0.001
HDF cells = assay: Mitochondrial membrane potential, MitoTracker staining, HDF; assay type: cell-based, human; settings: TP4 14 μg/mL, 3 or 6 h
[1] = system: phospho-p38 in MB231 cells; assay: Western blot of active p38, MB231; assay type: cell-based, human; settings: TNBC (MB231) cells, TP4 treatment
FOSB in MCF7 cells = assay: FOSB induction, Western blot/immunocytochemistry, MCF7; assay type: cell-based, human; settings: Western blot
Experimental: Nuclear extracts were prepared as previously described^23. Equal amounts of nuclear extract (200 μg) were used for immunoprecipitation (IP) using Dynabeads protein G (ThermoFisher Scientific), in accordance with the recommended protocol. cJUN antibody (ThermoFisher Scientific, clone C.238.2) was used for immunoprecipitation. Total cell extract preparation and Western blot were performed as previously described^23. Equal amounts of boiled lysate (20 μg of total cell extract) were separated on acrylamide gels, and then transferred to PVDF membranes. The membranes were incubated in blocking solution (0.1 M PBS, 5% non-fat milk, 0.2% Tween-20) for 1 h at room temperature (RT), and then incubated in the same solution with primary or secondary antibodies (GE Healthcare Life Science). […] Membranes were visualized with enhanced chemiluminescence (Immobilon Western Chemiluminescent HRP substrate, Merck Millipore) and detected by an imaging system (UVP, BioSpectrum™ 500). Signal intensities were determined by densitometric analysis (AlphaInnotech) using the AlphaImager program. The results were expressed as relative densitometric units (RDU) (the densitometric units of FOSB+FOSΔB divided by those of GAPDH). […]

MB231 tumors = assay type: in vivo, BALB/c nu/nu mice
Text: Female BALB/c nu/nu mice were obtained from BioLASCO Taiwan, Co., Ltd., and housed at the Laboratory Animal Facility, National Taiwan Ocean University, Keelung, Taiwan. Mice were maintained in pathogen-free sterile isolators, according to the guidelines of the Council of Agriculture (COA, Taiwan), and all food, water, caging, and bedding were sterilized before use. The animal protocol (103034) was approved by the Institutional Animal Care and Use Committee (IACUC) of the College of Life Science, National Taiwan Ocean University. For the TP4 treatment assay, nude mice with pre-growth MB231 tumors (n=5 for each group) were subcutaneously injected with TP4 (500 μg in 50 μL distilled water plus 10 μL KY jelly (Johnson & Johnson)) every two days for a total of fourteen times, by which time the tumors had reached an average volume of 30-50 mm^3 in size. Age-matched control nude mice without tumor xenografts were injected with KY jelly (10 μL plus 50 μL distilled water). Tumor size was calculated every two days, using the following formula: volume=[(height×length×width)×3.1416]/6. Mice were sacrificed 28 days after the beginning of TP4 treatment, and the tumors were harvested and weighed. Tumor samples were fixed with formalin and embedded with paraffin. Paraffin sections were stained by Hematoxylin & Eosin (H&E) and immunostained with Ki-67 antibody (Cell Signaling, clone D2H10, 1:100). Images were obtained with an inverted microscope (Olympus, IX71) coupled to a digital camera (Olympus DP80), using a 10× (UPlanFI 10×/0.30 Ph1) and 40× (LUCPlanFI 40×/0.60 Ph2) objective lens. CellSens standard software was used for image acquisition. Fluorescent images were obtained with an FV1000 laser-scanning confocal microscope, using a 10× objective lens (UPlanSApo 10×, N.A. 0.40). ASW2.1 software was used for image acquisition and analysis.

MB231 cells = assay: DNA laddering assay; assay type: cell-based, human; settings: TP4-treated MB231 cells, different time-points

Sequence: FIHHIIGGLFSAGKAIHRLIRRRRR [TP4, tilapia piscidin 4]
- mitochondrial Ca2+ levels (Rhod-2 AM) (TNBC (MB231) cells): trend towards decrease
- mitochondrial membrane potential (HDF cells): no significant difference
- active form of p38 [1]: significantly decreased
- FOSB induction (FOSB in MCF7 cells): induced
- Ki-67 positive cells in tumor sections (MB231 tumors; TP4-treated groups): dramatic decrease
- tumor necrosis (H&E pathology) (MB231 tumors; intratumoral TP4-treated groups): a large portion of the central region is necrotic
- tumor growth (tumor size) vs KY jelly control (MB231 tumors; nude mice, TP4 500 μg with KY jelly every two days, 14 injections, P<0.001): Significant differences
- xenograft tumor weight vs control (MB231 tumors; nude mice, at sacrifice day 28, P=0.0017): smaller tumor masses
- DNA fragmentation (DNA laddering) (MB231 cells): no obvious DNA fragmentation
